PubChem BioAssay AID602196, INSERM, 2012
Purpose: 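Modifiers of cisplatin sensitivity in A549 cells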. Cell system: human A549 lung cancer cells. Reagent: siRNA pair against human genes. Duration: 48 h transfection before cisplatin; time from cisplatin to read-out not stated. Conditions: cisplatin at a dose killing half of control-siRNA cells; exact dose and duration not given. Measurement: 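Shift in cisplatin death relative to control siRNA, from -50 (all cells die) to +50 (no cells die); siRNAs harmful on their own scored 0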. Reading the numbers: two-siRNA summed score (-2 to +2): higher = both siRNAs protect from cisplatin killing; -2 means both sensitise; mean protection from cisplatin (shift in death) and protection from cisplatin (shift in death), siRNA C and protection from cisplatin (shift in death), siRNA D: higher = protection from cisplatin killing. Rule for the call: 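Each siRNA scores 0 if harmful alone by LDH or WST-1, otherwise +1 if it reduces and -1 if it increases cisplatin killing; a gene is active when both siRNAs agree (sum +2 or -2)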. Meaning of the calls: active = both siRNAs shift cisplatin killing the same way; inactive = no consistent shift, or siRNA harmful alone.
This is an unselected part of about 23,000 reagents. Of all reagents, 455 (2%) were called active. 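Active includes both protection and sensitisation; some change values fall well beyond the stated -50 to +50 range.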 The numbers tell different reagents against one gene apart. The record does not give: the amount of reagent.

two-siRNA summed score (-2 to +2),mean protection from cisplatin (shift in death) (%),"protection from cisplatin (shift in death), siRNA C (%)","protection from cisplatin (shift in death), siRNA D (%)",Call,gene,reagent no.
0,9.8,5.6,13.9,inactive,KIAA0513,1
0,10.2,12,8.4,inactive,ANKRD13B,1
0,33.6,28.6,38.6,inactive,RPL17P5,1
0,-2.5,-6,1,inactive,TMPRSS6,1
0,10.3,3,17.6,inactive,HIPK2,1
1,12,6.3,17.8,inactive,LOC285047,1
-1,-6.5,-16.7,3.8,inactive,LOC402522,1
0,11.3,0.5,22.1,inactive,TBCE,1
0,6.4,9.2,3.6,inactive,ASCC3,1
1,9,13.5,4.6,inactive,ASCC3,2
0,2.1,-5.2,9.5,inactive,KRTAP20-2,1
-1,-10.1,-23.4,3.2,inactive,GGA3,1
0,-5.6,8,-19.1,inactive,TULP4,1
0,-4.9,5.1,-14.9,inactive,FAM110B,1
-1,-19.8,-9.8,-29.9,inactive,MXD4,1
0,9.7,16.3,3.1,inactive,THSD1,1
1,21.7,37.6,5.8,inactive,HTR3C,1
0,13.7,5.2,22.2,inactive,KIF7,1
0,-0.5,-4.1,3,inactive,ELP2,1
0,3.3,9.4,-2.8,inactive,EMC1,1
1,7.7,12.6,2.7,inactive,LOC402367,1
0,15.6,3.7,27.4,inactive,PPP3CA,1
1,11.2,13.9,8.5,inactive,LOC441997,1
-1,-24.6,-34.4,-14.8,inactive,RAC2,1
-1,-19.8,-16.3,-23.3,inactive,GFI1,1
0,8.3,20.4,-3.9,inactive,ESCO2,1
0,13.6,11.4,15.8,inactive,TGIF2LX,1
0,-11.5,-1.2,-21.8,inactive,RANBP10,1
0,0.1,3.6,-3.4,inactive,SPAST,1
-1,-22.6,-36,-9.2,inactive,BACH2,1
0,-14.2,-15.4,-13.1,inactive,GRIK4,1
0,-4.1,-8.7,0.5,inactive,PAM,1
-2,-17.4,-21.9,-12.8,active,RPE65,1
-1,-9,-13.1,-4.9,inactive,BRINP1,1
0,1.5,-0.7,3.7,inactive,MYO15A,1
0,1.4,9.8,-7,inactive,ERN1,1
1,13,2.5,23.6,inactive,DYNAP,1
0,0,-3.8,3.8,inactive,NPAP1,1
0,-3.7,-7.8,0.5,inactive,HYOU1,1

Reformatted: 5 of the entries above.
ANKRD13B
- two-siRNA summed score (-2 to +2): 0
- mean protection from cisplatin (shift in death) (%): 10.2
- protection from cisplatin (shift in death), siRNA C (%): 12
- protection from cisplatin (shift in death), siRNA D (%): 8.4
- Call: inactive

RPL17P5
- two-siRNA summed score (-2 to +2): 0
- mean protection from cisplatin (shift in death) (%): 33.6
- protection from cisplatin (shift in death), siRNA C (%): 28.6
- protection from cisplatin (shift in death), siRNA D (%): 38.6
- Call: inactive

TMPRSS6
- two-siRNA summed score (-2 to +2): 0
- mean protection from cisplatin (shift in death) (%): -2.5
- protection from cisplatin (shift in death), siRNA C (%): -6
- protection from cisplatin (shift in death), siRNA D (%): 1
- Call: inactive

HIPK2
- two-siRNA summed score (-2 to +2): 0
- mean protection from cisplatin (shift in death) (%): 10.3
- protection from cisplatin (shift in death), siRNA C (%): 3
- protection from cisplatin (shift in death), siRNA D (%): 17.6
- Call: inactive

LOC285047
- two-siRNA summed score (-2 to +2): 1
- mean protection from cisplatin (shift in death) (%): 12
- protection from cisplatin (shift in death), siRNA C (%): 6.3
- protection from cisplatin (shift in death), siRNA D (%): 17.8
- Call: inactive
